This is one part of the list. The data scatter; read single values as rough.

This assay deals with Candida albicans SN425. Description: biofilm OD600 B-score; higher = more biofilm (less inhibition). The note with it: 10 µM; assay detail: High-throughput adherence inhibition optical density biofilm assay with C. albicans SN425 in RPMI-1640/MOPS pH 7.0, 384-well plates. …. As for the experimental part:
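High-throughput adherence inhibition optical density biofilm assay with C. albicans SN425 in RPMI-1640/MOPS pH 7.0, 384-well plates. Compound (10 µM) was present only during the 90 min adherence step, then washed out, and the biofilm grew 24 h without compound. Biofilm was read as OD600 after removing the media. Scores are the difference from the mean in standard deviations and the plate B-score.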
For the compound `Cc1cccc(NC(=O)c2ccc(F)cc2)c1C(=O)O`, the “biofilm OD600 B-score” value is 2.95.

For the compound `Cc1ccc(S(=O)(=O)N2CCOCC2)cc1C(=O)Nc1cccnc1`, the “biofilm OD600 B-score” value was -2.83.

Take `CCN(CC)S(=O)(=O)c1ccc(C)c(C)c1C`: the “biofilm OD600 B-score” value amounted to 3.03. Consider `O=C(NCc1cccnc1)c1ccc(Cl)cc1`, for which the “biofilm OD600 B-score” value was -0.272. Consider `COc1cccc(NC(=O)c2ccc(C)o2)c1`, for which the “biofilm OD600 B-score” value is -2.64. Take `CN(C)c1nc(Nc2ccc(F)cc2)nc(-n2cccn2)n1`: the “biofilm OD600 B-score” value came out at 0.987. Turning to `Nc1n[nH]c(-c2ccc(Br)cc2)n1`, the “biofilm OD600 B-score” value was -0.125. For the compound `Cc1occc1C(=O)NCc1ccc(F)cc1`, the “biofilm OD600 B-score” value was found to be 0.208. In the case of `CSc1nnc(-c2cccc(C)c2)n1N`, the “biofilm OD600 B-score” value is -0.999. For the compound `Cn1c(-c2ccccc2)cnc1SCc1csc(N)n1`, the “biofilm OD600 B-score” value was -0.313. With `CSc1cccc(NS(=O)(=O)c2ccc(NC(C)=O)cc2)c1` the figure was 0.107; with `Cn1c(SCC(=O)c2cccs2)nnc1-c1ccccc1`, -1; with `COc1c(S(=O)(=O)n2nc(C)cc2C)ccc(Cl)c1Cl`, -0.616. Turning to `c1cncc(CN2CCc3ccccc3C2)c1`, the “biofilm OD600 B-score” value was 1.06. Turning to `O=S(=O)(c1ccc(F)cc1)N1CCN(c2ccccn2)CC1`, the “biofilm OD600 B-score” value is -1.34. On to `Cc1ccc(C(NC(N)=O)c2ccccc2)cc1C` (configuration not stated), for which the “biofilm OD600 B-score” value is -1.91. As to `OC1CCN(Cc2cccc(Oc3ccccc3)c2)CC1`, the “biofilm OD600 B-score” value is -0.299.

The values above are taken from the supplement of paper PMC7824004.
